According to the supplement of paper PMC10849652:
This is one part of the list.

By UniProt entry, the sequences of proteins in these tests, tags left out. Where a name states a change or a piece, a line headed by the entry shows the natural chain unless it says otherwise.
UniProt P0CAP2, whole entry, looked up: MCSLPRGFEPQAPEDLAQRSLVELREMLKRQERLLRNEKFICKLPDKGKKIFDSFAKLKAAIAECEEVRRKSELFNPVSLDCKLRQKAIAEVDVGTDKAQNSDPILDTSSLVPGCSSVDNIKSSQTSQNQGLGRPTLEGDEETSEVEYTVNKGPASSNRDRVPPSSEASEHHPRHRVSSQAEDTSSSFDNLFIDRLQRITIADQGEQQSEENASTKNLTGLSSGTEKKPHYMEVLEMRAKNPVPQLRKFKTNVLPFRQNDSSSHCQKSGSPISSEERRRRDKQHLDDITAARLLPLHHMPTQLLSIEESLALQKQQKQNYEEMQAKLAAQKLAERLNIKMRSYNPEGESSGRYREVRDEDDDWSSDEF
UniProt P54098: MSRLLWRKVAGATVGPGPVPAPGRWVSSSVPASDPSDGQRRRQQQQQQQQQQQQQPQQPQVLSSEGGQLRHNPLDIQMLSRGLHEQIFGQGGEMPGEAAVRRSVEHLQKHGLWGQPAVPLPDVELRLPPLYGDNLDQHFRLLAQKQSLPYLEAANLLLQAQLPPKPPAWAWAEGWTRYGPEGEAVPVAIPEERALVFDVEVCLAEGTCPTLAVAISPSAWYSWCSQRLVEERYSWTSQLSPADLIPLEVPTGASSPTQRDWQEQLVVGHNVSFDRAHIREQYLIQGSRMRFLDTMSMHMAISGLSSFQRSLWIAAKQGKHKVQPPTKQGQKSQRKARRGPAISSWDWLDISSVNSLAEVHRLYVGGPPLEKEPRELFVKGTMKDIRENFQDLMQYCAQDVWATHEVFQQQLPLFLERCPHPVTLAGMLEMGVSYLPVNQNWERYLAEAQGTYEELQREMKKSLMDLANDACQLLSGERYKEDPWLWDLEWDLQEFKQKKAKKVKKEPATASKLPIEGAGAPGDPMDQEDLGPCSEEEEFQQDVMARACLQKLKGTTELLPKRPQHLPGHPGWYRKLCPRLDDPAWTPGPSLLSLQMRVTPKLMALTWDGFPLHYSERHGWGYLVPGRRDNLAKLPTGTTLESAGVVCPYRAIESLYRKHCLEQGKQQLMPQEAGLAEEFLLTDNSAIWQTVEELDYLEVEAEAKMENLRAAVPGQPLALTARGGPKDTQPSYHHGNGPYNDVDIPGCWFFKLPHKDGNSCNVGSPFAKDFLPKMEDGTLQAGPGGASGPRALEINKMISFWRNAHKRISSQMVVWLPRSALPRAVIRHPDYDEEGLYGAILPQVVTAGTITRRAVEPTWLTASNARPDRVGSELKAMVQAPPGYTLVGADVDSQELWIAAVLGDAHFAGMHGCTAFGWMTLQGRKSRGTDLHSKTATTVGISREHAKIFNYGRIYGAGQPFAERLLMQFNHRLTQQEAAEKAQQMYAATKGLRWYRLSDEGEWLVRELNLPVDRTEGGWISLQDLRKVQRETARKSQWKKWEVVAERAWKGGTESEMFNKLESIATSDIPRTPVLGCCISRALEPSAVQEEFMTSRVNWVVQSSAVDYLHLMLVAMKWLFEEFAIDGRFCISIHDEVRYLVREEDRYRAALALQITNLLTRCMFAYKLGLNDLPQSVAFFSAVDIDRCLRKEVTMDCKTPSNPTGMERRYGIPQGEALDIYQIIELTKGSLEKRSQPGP
UniProt Q9HBL7: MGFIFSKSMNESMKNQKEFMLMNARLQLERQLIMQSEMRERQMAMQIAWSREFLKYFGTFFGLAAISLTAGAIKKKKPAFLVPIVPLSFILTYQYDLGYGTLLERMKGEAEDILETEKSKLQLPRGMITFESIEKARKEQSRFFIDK
UniProt Q8NEY8: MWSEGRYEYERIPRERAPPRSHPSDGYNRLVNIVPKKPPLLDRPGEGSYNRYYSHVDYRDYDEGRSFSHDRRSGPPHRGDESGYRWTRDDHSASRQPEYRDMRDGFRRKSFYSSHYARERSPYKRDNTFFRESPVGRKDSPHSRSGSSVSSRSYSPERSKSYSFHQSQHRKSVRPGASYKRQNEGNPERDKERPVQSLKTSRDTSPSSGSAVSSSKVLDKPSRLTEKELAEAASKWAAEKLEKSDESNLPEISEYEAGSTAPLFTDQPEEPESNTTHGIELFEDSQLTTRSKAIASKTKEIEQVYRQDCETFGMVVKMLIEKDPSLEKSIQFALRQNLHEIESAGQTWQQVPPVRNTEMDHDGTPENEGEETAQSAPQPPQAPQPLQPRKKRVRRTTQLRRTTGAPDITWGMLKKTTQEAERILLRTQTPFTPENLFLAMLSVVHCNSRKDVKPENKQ
UniProt Q9H307: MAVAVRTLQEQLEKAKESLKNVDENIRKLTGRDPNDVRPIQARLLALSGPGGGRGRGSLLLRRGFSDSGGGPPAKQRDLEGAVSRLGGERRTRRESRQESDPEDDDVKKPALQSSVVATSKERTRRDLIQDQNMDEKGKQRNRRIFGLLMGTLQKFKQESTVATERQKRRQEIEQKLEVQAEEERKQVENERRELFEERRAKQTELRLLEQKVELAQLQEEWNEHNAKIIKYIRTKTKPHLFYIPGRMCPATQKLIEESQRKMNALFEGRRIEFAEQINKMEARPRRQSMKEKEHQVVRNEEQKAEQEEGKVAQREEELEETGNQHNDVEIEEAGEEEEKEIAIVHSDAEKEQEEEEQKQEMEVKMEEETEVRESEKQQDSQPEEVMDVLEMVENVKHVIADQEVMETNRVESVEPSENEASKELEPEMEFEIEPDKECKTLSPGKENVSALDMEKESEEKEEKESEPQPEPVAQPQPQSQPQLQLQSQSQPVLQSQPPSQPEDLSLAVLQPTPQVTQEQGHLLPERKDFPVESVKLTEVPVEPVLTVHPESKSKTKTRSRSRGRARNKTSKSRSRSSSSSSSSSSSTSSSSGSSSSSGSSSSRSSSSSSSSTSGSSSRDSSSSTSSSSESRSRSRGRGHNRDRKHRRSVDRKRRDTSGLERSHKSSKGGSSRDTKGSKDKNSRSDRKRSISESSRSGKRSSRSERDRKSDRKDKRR
UniProt Q9HCU8: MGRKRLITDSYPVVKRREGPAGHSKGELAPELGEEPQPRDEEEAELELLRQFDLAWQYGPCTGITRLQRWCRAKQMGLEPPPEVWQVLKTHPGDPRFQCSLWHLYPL
UniProt Q9NR33: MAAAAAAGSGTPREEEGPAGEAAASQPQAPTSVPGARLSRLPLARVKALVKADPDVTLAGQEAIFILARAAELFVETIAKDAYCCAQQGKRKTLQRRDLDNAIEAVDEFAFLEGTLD
UniProt P45877: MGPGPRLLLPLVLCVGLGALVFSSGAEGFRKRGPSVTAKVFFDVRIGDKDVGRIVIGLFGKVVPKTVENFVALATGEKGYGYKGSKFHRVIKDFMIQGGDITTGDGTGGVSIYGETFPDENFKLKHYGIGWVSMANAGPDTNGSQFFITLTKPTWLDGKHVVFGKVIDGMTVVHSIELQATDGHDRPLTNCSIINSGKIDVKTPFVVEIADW
UniProt Q8NAT1: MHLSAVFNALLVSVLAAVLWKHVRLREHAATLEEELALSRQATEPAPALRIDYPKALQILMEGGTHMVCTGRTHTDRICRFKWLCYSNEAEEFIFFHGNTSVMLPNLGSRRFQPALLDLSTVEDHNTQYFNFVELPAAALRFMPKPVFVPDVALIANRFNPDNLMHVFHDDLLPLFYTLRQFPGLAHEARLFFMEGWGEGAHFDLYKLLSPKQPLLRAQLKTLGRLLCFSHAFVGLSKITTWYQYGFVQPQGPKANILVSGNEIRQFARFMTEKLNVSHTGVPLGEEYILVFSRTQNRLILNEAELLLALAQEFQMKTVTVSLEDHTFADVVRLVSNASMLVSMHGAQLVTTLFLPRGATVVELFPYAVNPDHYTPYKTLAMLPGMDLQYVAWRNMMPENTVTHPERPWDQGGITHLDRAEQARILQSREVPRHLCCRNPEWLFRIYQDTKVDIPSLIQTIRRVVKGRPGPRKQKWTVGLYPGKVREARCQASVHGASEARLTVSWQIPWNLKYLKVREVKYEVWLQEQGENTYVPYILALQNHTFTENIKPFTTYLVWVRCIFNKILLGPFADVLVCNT
UniProt Q07864, whole entry, looked up: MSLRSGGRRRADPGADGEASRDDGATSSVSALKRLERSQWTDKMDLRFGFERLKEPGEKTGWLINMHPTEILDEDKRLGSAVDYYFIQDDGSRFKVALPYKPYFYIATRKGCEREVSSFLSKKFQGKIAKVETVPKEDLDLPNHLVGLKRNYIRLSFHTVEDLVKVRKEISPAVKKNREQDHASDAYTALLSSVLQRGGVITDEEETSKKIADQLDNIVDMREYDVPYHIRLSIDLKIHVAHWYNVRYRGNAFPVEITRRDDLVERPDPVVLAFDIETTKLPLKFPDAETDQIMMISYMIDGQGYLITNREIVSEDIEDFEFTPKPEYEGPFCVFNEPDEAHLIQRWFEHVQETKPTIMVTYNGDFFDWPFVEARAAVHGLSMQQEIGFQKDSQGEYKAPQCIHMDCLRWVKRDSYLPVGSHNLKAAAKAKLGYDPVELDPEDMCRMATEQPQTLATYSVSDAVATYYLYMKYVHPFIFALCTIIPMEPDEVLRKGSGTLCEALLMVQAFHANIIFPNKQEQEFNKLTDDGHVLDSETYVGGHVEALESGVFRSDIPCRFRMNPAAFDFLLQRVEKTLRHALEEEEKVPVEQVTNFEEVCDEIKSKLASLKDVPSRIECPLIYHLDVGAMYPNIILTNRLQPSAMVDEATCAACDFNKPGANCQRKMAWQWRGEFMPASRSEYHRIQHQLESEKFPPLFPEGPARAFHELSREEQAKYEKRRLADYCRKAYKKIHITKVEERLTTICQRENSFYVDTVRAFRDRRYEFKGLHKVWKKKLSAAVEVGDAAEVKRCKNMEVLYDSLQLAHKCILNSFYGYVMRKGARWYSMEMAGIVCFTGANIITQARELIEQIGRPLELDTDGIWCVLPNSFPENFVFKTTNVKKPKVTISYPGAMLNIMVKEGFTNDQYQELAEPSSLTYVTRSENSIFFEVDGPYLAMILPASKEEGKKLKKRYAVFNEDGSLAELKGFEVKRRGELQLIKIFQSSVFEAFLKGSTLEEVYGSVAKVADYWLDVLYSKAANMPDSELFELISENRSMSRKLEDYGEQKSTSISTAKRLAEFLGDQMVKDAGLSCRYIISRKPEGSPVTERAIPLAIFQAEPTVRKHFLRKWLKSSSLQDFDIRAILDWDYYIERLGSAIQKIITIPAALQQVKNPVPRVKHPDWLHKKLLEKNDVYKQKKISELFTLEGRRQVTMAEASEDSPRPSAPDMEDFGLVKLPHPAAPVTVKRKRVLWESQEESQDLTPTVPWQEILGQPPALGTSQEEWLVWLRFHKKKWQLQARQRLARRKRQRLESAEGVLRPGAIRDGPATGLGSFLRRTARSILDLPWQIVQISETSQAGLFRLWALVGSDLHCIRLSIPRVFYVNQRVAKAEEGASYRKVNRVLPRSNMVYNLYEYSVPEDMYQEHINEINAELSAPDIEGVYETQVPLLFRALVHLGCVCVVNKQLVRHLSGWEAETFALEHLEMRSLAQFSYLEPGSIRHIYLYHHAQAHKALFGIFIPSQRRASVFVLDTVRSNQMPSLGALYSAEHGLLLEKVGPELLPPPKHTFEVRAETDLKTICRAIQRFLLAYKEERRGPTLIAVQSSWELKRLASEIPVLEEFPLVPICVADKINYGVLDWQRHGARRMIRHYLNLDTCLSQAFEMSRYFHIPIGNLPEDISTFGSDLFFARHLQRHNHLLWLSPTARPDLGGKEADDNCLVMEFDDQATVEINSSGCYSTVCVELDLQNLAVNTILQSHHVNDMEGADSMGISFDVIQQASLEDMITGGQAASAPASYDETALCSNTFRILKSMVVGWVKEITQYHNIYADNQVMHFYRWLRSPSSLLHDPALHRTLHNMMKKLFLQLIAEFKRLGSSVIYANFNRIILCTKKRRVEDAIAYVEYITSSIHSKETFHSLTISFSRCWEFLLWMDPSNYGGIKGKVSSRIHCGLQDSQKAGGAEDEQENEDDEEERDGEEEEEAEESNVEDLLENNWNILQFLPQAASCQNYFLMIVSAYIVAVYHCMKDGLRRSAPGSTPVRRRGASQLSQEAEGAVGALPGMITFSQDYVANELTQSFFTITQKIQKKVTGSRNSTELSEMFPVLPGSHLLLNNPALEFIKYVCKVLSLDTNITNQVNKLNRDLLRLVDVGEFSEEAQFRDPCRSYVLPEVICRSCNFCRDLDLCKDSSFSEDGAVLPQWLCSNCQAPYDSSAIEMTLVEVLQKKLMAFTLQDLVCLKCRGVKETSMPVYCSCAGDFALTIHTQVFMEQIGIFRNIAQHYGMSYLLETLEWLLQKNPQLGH
UniProt P0DPB5: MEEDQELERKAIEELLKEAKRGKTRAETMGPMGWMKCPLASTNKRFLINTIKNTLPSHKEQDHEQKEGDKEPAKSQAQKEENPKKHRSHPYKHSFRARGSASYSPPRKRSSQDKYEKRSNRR

How the values were obtained:
Assay in all cases: log2 fold change, soluble protein after heating vs DMSO (PISA); higher = thermal stabilisation; K562 cells, 10 uM, 30 min; active = over 0.2 and 3.5 SD of the protein, either way, in both replicates (recomputed)
bafetinib = compound: Cc1ccc(NC(=O)c2ccc(CN3CC[C@H](N(C)C)C3)c(C(F)(F)F)c2)cc1Nc1nccc(-c2cncnc2)n1 [bafetinib]
How it was run: (§1)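 Soluble protein was quantified by TMTpro 16plex LC-MS/MS after channel sums were equalised. It was obtained as the supernatant after 21,000xg for 90 min from pooled aliquots of K562 cells (2×10^6 cells/mL, 10 μM compound, 30 min) heated for 3 min across 48°C-58°C and extracted in PBS with 0.5% NP-40 at 4°C. Thermal stability values are relative to control samples and come from duplicates. They are given as log2 fold changes.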

[1] = compound: Cc1cccc(CC(=O)N2CCc3c2ccc(-c2cn(C)c4ncnc(N)c24)c3F)n1
How it was run: as §1

nilotinib = compound: Cc1cn(-c2cc(NC(=O)c3ccc(C)c(Nc4nccc(-c5cccnc5)n4)c3)cc(C(F)(F)F)c2)cn1 [nilotinib]
How it was run: as §1

[2] = compound: Cc1nc(Nc2n[nH]c3c2CN(C(=O)N[C@H](CN(C)C)c2ccccc2)C3(C)C)c2sccc2n1
How it was run: as §1

dasatinib = compound: Cc1nc(Nc2ncc(C(=O)Nc3c(C)cccc3Cl)s2)cc(N2CCN(CCO)CC2)n1 [dasatinib]
How it was run: as §1

[3] = compound: Cc1ncc(-c2ccnc(Nc3ccc(S(C)(=O)=O)cc3)n2)n1C(C)C
How it was run: as §1

[4] = compound: Cn1cc(-c2ccc3c(c2)CCN3C(=O)Cc2cccc(C(F)(F)F)c2)c2c(N)ncnc21
How it was run: as §1

[5] = compound: Cn1cc(-c2ccc3nnc(C(F)(F)c4ccc5ncccc5c4)n3n2)cn1
How it was run: as §1

tipifarnib = compound: Cn1cncc1[C@@](N)(c1ccc(Cl)cc1)c1ccc2c(c1)c(-c1cccc(Cl)c1)cc(=O)n2C [tipifarnib]
How it was run: as §1

mubritinib = compound: FC(F)(F)c1ccc(/C=C/c2nc(COc3ccc(CCCCn4ccnn4)cc3)co2)cc1 [mubritinib]
How it was run: as §1

[6] = compound: NC(=O)Nc1cc(-c2cccc(F)c2)sc1C(=O)N[C@H]1CCCNC1
How it was run: as §1

[7] = compound: NC(=O)c1cnc(N[C@@H]2CCCC[C@@H]2N)nc1Nc1cccc(-n2nccn2)c1
How it was run: as §1

[8] = compound: NC1(c2ccc(-c3nc4ccn5c(=O)[nH]nc5c4cc3-c3ccccc3)cc2)CCC1
How it was run: as §1

[9] = compound: NCC(=O)Nc1ccc(-n2nc(C(F)(F)F)cc2-c2ccc3c(ccc4ccccc43)c2)cc1
How it was run: as §1

entinostat = compound: Nc1ccccc1NC(=O)c1ccc(CNC(=O)OCc2cccnc2)cc1 [entinostat]
How it was run: as §1

vorinostat = compound: O=C(CCCCCCC(=O)Nc1ccccc1)NO [vorinostat]
How it was run: as §1

citarinostat = compound: O=C(CCCCCCNC(=O)c1cnc(N(c2ccccc2)c2ccccc2Cl)nc1)NO [citarinostat]
How it was run: as §1

silmitasertib = compound: O=C(O)c1ccc2c(c1)nc(Nc1cccc(Cl)c1)c1ccncc12 [silmitasertib]
How it was run: as §1

[10] = compound: O=C1NC(=O)C(c2cnc3ccccn23)=C1c1cn2c3c(cc(F)cc13)CN(C(=O)N1CCCCC1)CC2
How it was run: as §1

[11] = compound: c1cc(OCCN2CCCCC2)cc(-c2n[nH]c3ccc(-c4nnc[nH]4)cc23)c1
How it was run: as §1

Measured: log2 fold change

POLR2M (UniProt P0CAP2)
inactive: bafetinib -0.029 | [1] -0.015 | nilotinib -0.011 | [2] 0.034 | dasatinib 0.055 | [3] 0.138 | [4] -0.051 | [5] -0.024 | tipifarnib 0.035 | mubritinib -0.037 | [6] -0.03 | [7] 0.035 | [8] -0.045 | [9] -0.085 | entinostat -0.032 | vorinostat -0.091 | citarinostat -0.019 | silmitasertib 0.043 | [10] 0.009 | [11] -0.008

POLG (UniProt P54098)
inactive: bafetinib 0.018 | [1] 0.113 | nilotinib 0.015 | [2] 0.17 | dasatinib 0.065 | [3] -0.005 | [4] 0.021 | [5] 0.096 | tipifarnib 0.112 | mubritinib 0.09 | [6] -0.078 | [7] -0.231 | [8] -0.106 | [9] -0.184 | entinostat 0.021 | vorinostat -0.105 | silmitasertib 0.025 | [10] 0.097

PLGRKT (UniProt Q9HBL7)
inactive: bafetinib -0.184 | [1] 0.078 | nilotinib -0.005 | [2] -0.001 | dasatinib 0.141 | [3] 0.006 | [4] 0.155 | mubritinib -0.046 | [6] -0.157 | [7] -0.055 | [8] -0.238 | entinostat 0.026 | vorinostat -0.083 | citarinostat 0.069 | silmitasertib 0.031 | [10] -0.082 | [11] -0.179

PPHLN1 (UniProt Q8NEY8)
inactive: bafetinib -0.075 | [1] 0.001 | dasatinib 0 | [5] -0.046 | tipifarnib 0.187 | mubritinib 0.147 | [8] 0.043 | [9] -0.072 | vorinostat -0.023 | citarinostat 0.007 | silmitasertib 0.092 | [11] 0.019

PLXNA3 (UniProt P51805)
inactive: bafetinib 0.045 | [1] -0.073 | dasatinib 0 | mubritinib 0.027 | [6] 0.003 | [7] -0.213 | [8] -0.087 | entinostat -0.036 | vorinostat 0.072 | silmitasertib 0.049 | [10] -0.209

PNN (UniProt Q9H307)
active: [2] -0.344 | [11] -0.446
inactive: bafetinib -0.08 | [1] -0.008 | nilotinib -0.028 | dasatinib 0.062 | [3] -0.039 | [4] 0.028 | [5] 0.231 | tipifarnib 0.255 | mubritinib -0.098 | [6] -0.018 | [7] -0.24 | [8] 0.053 | entinostat 0.021 | vorinostat 0.045 | citarinostat -0.077 | silmitasertib -0.124 | [10] 0.106

POLD4 (UniProt Q9HCU8)
inactive: bafetinib -0.005 | [1] -0.064 | nilotinib -0.03 | [2] 0.113 | dasatinib 0.011 | [3] -0.033 | [4] 0.346 | [5] 0.033 | tipifarnib 0.007 | mubritinib 0.096 | [7] 0.082 | [8] 0.003 | vorinostat 0.39 | citarinostat 0.206 | silmitasertib 0.07 | [11] 0.03

POLE4 (UniProt Q9NR33)
inactive: bafetinib -0.019 | [1] 0.069 | nilotinib -0.009 | [2] -0.01 | [3] -0.009 | [4] 0.158 | tipifarnib -0.107 | mubritinib 0.002 | [6] 0.045 | [7] -0.052 | [8] -0.006 | [9] -0.025 | entinostat 0.13 | vorinostat 0 | citarinostat 0.085 | silmitasertib -0.005 | [10] -0.115 | [11] 0.008

PPIC (UniProt P45877)
inactive: bafetinib -0.051 | [1] -0.129 | nilotinib -0.039 | [2] -0.032 | dasatinib -0.109 | [3] -0.015 | [4] -0.195 | tipifarnib 0.077 | mubritinib -0.036 | [6] 0.012 | [7] -0.001 | [8] -0.091 | entinostat 0.019 | vorinostat -0.238 | citarinostat 0.033 | silmitasertib 0.036 | [10] -0.044 | [11] 0.065

POMGNT2 (UniProt Q8NAT1)
inactive: bafetinib 0.254 | [1] -0.052 | dasatinib 0.071 | [4] 0.158 | tipifarnib 0.165 | mubritinib 0.012 | [6] 0.005 | [7] 0.123 | [8] -0.078 | [9] 0.025 | entinostat 0.038 | vorinostat -0.019 | silmitasertib 0.075

POLE (UniProt Q07864)
inactive: bafetinib -0.029 | [1] -0.034 | [4] -0.287 | [5] 0.099 | vorinostat 0

POLR1D (UniProt P0DPB5)
inactive: bafetinib -0.136 | [1] -0.048 | [4] -0.074 | [5] -0.061 | tipifarnib 0.371 | [6] -0.014 | [7] 0.045 | entinostat -0.084 | vorinostat -0.064 | citarinostat -0.05 | [10] 0.12 | [11] 0.056
